Experimental data: PubChem BioAssay AID1053209 (Peter MacCallum Cancer Centre, 2014)
The whole screen tested about 1,580 reagents; below is a random part of them. Over the whole deposit, 207 (13%) were called active. 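Rows are single siRNAs; four siRNAs per gene were tested, a gene counting as confirmed only when at least two agree.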 Reagents against one gene are numbered here.

Assay: 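Knock-downs that sensitise mouse osteosarcoma cells to doxorubicin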 (follow-up of hits)
System: mouse primary osteosarcoma cells
Knock-down reagent: single siRNA against mouse genes, 25 nM (text also states 40 nM)
Duration: about 120 h (48 h before drug, then 72 h with drug)
Conditions: doxorubicin 100 nM (about IC30-40), added 48 h after transfection, for 72 h
Measurement: 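ATP-based luminescent viability, with or without doxorubicin, relative to non-targeting control NT1, mean of two replicates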
Direction: viability with doxorubicin, vs NT1: higher = more viable cells under doxorubicin; viability ratio, doxorubicin over no drug: higher = less sensitisation to doxorubicin; viability without drug, vs NT1: higher = more viable cells without drug
Call rule: 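Counted as active (class LC dox) if viability falls to 0.7 of NT1 or below under doxorubicin but stays within 0.7 to 1.1 without drug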

no.	gene	siRNA no.	combined effect class	viability with doxorubicin, vs NT1	viability ratio, doxorubicin over no drug	viability without drug, vs NT1	Call
1	Meltf (melanotransferrin)	1	normal viability with and without drug	0.91	0.93	0.98	inactive
2	Meltf (melanotransferrin)	2	normal viability with and without drug	1.08	1.05	1.03	inactive
3	Meltf (melanotransferrin)	3	low viability only with doxorubicin; normal without drug	0.7	0.76	0.92	active
4	Meltf (melanotransferrin)	4	high viability only without drug	1.06	0.9	1.18	inactive
5	Bcl2a1d (B cell leukemia/lymphoma 2 related protein A1d)	1	normal viability with and without drug	0.92	0.93	0.99	inactive
6	Bcl2a1d (B cell leukemia/lymphoma 2 related protein A1d)	2	normal viability with and without drug	0.99	0.96	1.03	inactive
7	Bcl2a1d (B cell leukemia/lymphoma 2 related protein A1d)	3	normal viability with and without drug	1.02	1.03	0.99	inactive
8	Bcl2a1d (B cell leukemia/lymphoma 2 related protein A1d)	4	normal viability with and without drug	1.08	1.13	0.96	inactive
9	Med14 (mediator complex subunit 14)	1	low viability with and without drug	0.46	0.69	0.67	inactive
10	Med14 (mediator complex subunit 14)	2	low viability only with doxorubicin; normal without drug	0.48	0.62	0.77	active
11	Med14 (mediator complex subunit 14)	3	low viability only with doxorubicin; normal without drug	0.6	0.65	0.92	active
12	Med14 (mediator complex subunit 14)	4	normal viability with and without drug	0.72	0.83	0.87	inactive
13	Eif3i (eukaryotic translation initiation factor 3, subunit I)	1	low viability with and without drug	0.45	0.98	0.46	inactive
14	Eif3i (eukaryotic translation initiation factor 3, subunit I)	2	low viability with and without drug	0.29	1	0.29	inactive
15	Eif3i (eukaryotic translation initiation factor 3, subunit I)	3	normal viability with and without drug	0.9	0.99	0.91	inactive
16	Eif3i (eukaryotic translation initiation factor 3, subunit I)	4	low viability with and without drug	0.44	0.79	0.56	inactive
17	Cadps2 (Ca2+-dependent activator protein for secretion 2)	1	normal viability with and without drug	0.94	0.97	0.97	inactive
18	Cadps2 (Ca2+-dependent activator protein for secretion 2)	2	normal viability with and without drug	1.09	1.1	0.99	inactive
19	Cadps2 (Ca2+-dependent activator protein for secretion 2)	3	normal viability with and without drug	0.94	1.01	0.93	inactive
20	Cadps2 (Ca2+-dependent activator protein for secretion 2)	4	normal viability with and without drug	0.8	0.93	0.86	inactive
21	Ran (RAN, member RAS oncogene family)	1	low viability with and without drug	0.1	0.27	0.37	inactive
22	Ran (RAN, member RAS oncogene family)	2	low viability with and without drug	0.1	0.28	0.36	inactive
23	Ran (RAN, member RAS oncogene family)	3	low viability with and without drug	0.06	0.15	0.4	inactive
24	Ran (RAN, member RAS oncogene family)	4	low viability with and without drug	0.12	0.41	0.29	inactive
25	Mrps16 (mitochondrial ribosomal protein S16)	1	normal viability with and without drug	1.04	1.13	0.92	inactive
26	Mrps16 (mitochondrial ribosomal protein S16)	2	normal viability with and without drug	0.95	0.99	0.96	inactive
27	Mrps16 (mitochondrial ribosomal protein S16)	3	normal viability with and without drug	0.9	1.05	0.86	inactive
28	Mrps16 (mitochondrial ribosomal protein S16)	4	normal viability with and without drug	0.76	0.85	0.89	inactive
29	Mfap5 (microfibrillar associated protein 5)	1	normal viability with and without drug	0.98	0.94	1.04	inactive
30	Mfap5 (microfibrillar associated protein 5)	2	normal viability with and without drug	0.88	0.92	0.96	inactive
31	Mfap5 (microfibrillar associated protein 5)	3	normal viability with and without drug	0.9	0.94	0.96	inactive
32	Mfap5 (microfibrillar associated protein 5)	4	normal viability with and without drug	1.05	1.04	1.01	inactive
33	Prkab2 (protein kinase, AMP-activated, beta 2 non-catalytic subunit)	1	normal viability with and without drug	0.97	1.08	0.9	inactive
34	Prkab2 (protein kinase, AMP-activated, beta 2 non-catalytic subunit)	2	normal viability with and without drug	0.96	0.92	1.04	inactive
35	Prkab2 (protein kinase, AMP-activated, beta 2 non-catalytic subunit)	3	normal viability with and without drug	0.98	1	0.98	inactive
36	Prkab2 (protein kinase, AMP-activated, beta 2 non-catalytic subunit)	4	high viability only with doxorubicin	1.17	1.15	1.02	inactive

Copied from the list:
Ran (RAN, member RAS oncogene family) #4, viability with doxorubicin, vs NT1 = 0.12
For “viability with doxorubicin, vs NT1”, Bcl2a1d (B cell leukemia/lymphoma 2 related protein A1d) #4 has 1.08
Under “viability without drug, vs NT1”, Eif3i (eukaryotic translation initiation factor 3, subunit I) #2 has 0.29
Mfap5 (microfibrillar associated protein 5) #1, viability without drug, vs NT1 → 1.04
Value for Prkab2 (protein kinase, AMP-activated, beta 2 non-catalytic subunit) #2 in “viability ratio, doxorubicin over no drug”: 0.92
Ran (RAN, member RAS oncogene family) #2, viability ratio, doxorubicin over no drug = 0.28

The results go on.
no.	gene	siRNA no.	combined effect class	viability with doxorubicin, vs NT1	viability ratio, doxorubicin over no drug	viability without drug, vs NT1	Call
37	Spc25	1	low viability only with doxorubicin; normal without drug	0.68	0.72	0.94	active
38	Spc25	2	low viability only with doxorubicin; normal without drug	0.6	0.75	0.8	active
39	Spc25	3	low viability with and without drug	0.56	0.9	0.62	inactive
40	Spc25	4	normal viability with and without drug	0.86	0.93	0.92	inactive
41	Psma7 (proteasome subunit alpha 7)	1	low viability with and without drug	0.48	0.75	0.64	inactive
42	Psma7 (proteasome subunit alpha 7)	2	low viability with and without drug	0.31	0.58	0.53	inactive
43	Psma7 (proteasome subunit alpha 7)	3	normal viability with and without drug	0.74	0.76	0.98	inactive
44	Psma7 (proteasome subunit alpha 7)	4	low viability with and without drug	0.27	0.5	0.54	inactive
45	Cdc23 (CDC23 cell division cycle 23)	1	normal viability with and without drug	0.88	0.89	0.99	inactive
46	Cdc23 (CDC23 cell division cycle 23)	2	normal viability with and without drug	1.06	1.01	1.05	inactive
47	Cdc23 (CDC23 cell division cycle 23)	3	normal viability with and without drug	1.07	1.07	1	inactive
48	Cdc23 (CDC23 cell division cycle 23)	4	low viability only with doxorubicin; normal without drug	0.68	0.74	0.92	active
49	Tssk1 (testis-specific serine kinase 1)	1	normal viability with and without drug	0.98	1.07	0.92	inactive
50	Tssk1 (testis-specific serine kinase 1)	2	high viability with and without drug	1.14	1.04	1.1	inactive
51	Tssk1 (testis-specific serine kinase 1)	3	normal viability with and without drug	0.72	0.75	0.96	inactive
52	Tssk1 (testis-specific serine kinase 1)	4	normal viability with and without drug	0.99	1.01	0.98	inactive
53	Eid3 (EP300 interacting inhibitor of differentiation 3)	1	normal viability with and without drug	0.81	1.09	0.74	inactive
54	Eid3 (EP300 interacting inhibitor of differentiation 3)	2	low viability only with doxorubicin; normal without drug	0.7	0.83	0.84	active
55	Eid3 (EP300 interacting inhibitor of differentiation 3)	3	low viability only without drug	0.74	1.09	0.68	inactive
56	Eid3 (EP300 interacting inhibitor of differentiation 3)	4	high viability only with doxorubicin	1.12	1.08	1.04	inactive
57	Il17a (interleukin 17A)	1	normal viability with and without drug	0.96	1	0.96	inactive
58	Il17a (interleukin 17A)	2	normal viability with and without drug	0.99	0.93	1.06	inactive
59	Il17a (interleukin 17A)	3	high viability only with doxorubicin	1.12	1.09	1.03	inactive
60	Il17a (interleukin 17A)	4	high viability only with doxorubicin	1.12	1.06	1.06	inactive
61	Ppm1n (protein phosphatase, Mg2+/Mn2+ dependent, 1N (putative))	1	low viability only with doxorubicin; normal without drug	0.68	0.75	0.91	active
62	Ppm1n (protein phosphatase, Mg2+/Mn2+ dependent, 1N (putative))	2	low viability only with doxorubicin; normal without drug	0.69	0.7	0.98	active
63	Ppm1n (protein phosphatase, Mg2+/Mn2+ dependent, 1N (putative))	3	normal viability with and without drug	0.78	0.89	0.88	inactive
64	Ppm1n (protein phosphatase, Mg2+/Mn2+ dependent, 1N (putative))	4	normal viability with and without drug	0.8	0.89	0.9	inactive
65	Peli1 (pellino 1)	1	normal viability with and without drug	0.9	1.03	0.87	inactive
66	Peli1 (pellino 1)	2	normal viability with and without drug	1.04	1.04	1	inactive
67	Peli1 (pellino 1)	3	low viability only with doxorubicin; normal without drug	0.69	0.7	0.99	active
68	Peli1 (pellino 1)	4	normal viability with and without drug	1.09	1.11	0.98	inactive
69	Xirp1 (xin actin-binding repeat containing 1)	1	low viability only with doxorubicin; normal without drug	0.69	0.7	0.98	active
70	Xirp1 (xin actin-binding repeat containing 1)	2	normal viability with and without drug	0.98	1.02	0.96	inactive
71	Xirp1 (xin actin-binding repeat containing 1)	3	normal viability with and without drug	0.96	0.95	1.01	inactive
72	Xirp1 (xin actin-binding repeat containing 1)	4	normal viability with and without drug	0.88	0.82	1.07	inactive
73	Ikzf5 (IKAROS family zinc finger 5)	1	normal viability with and without drug	1.06	1.06	1	inactive
74	Ikzf5 (IKAROS family zinc finger 5)	2	normal viability with and without drug	0.9	0.88	1.02	inactive
75	Ikzf5 (IKAROS family zinc finger 5)	3	normal viability with and without drug	0.87	0.9	0.97	inactive
76	Ikzf5 (IKAROS family zinc finger 5)	4	normal viability with and without drug	1.04	1.04	1	inactive
